Test results from PubChem BioAssay AID485314 (National Center for Advancing Translational Sciences (NCATS), 2010).
Hit rate of the full screen: of about 340,000 compounds, about 4,500 (1.3%) were called active. The inconclusive results got no clear call from the source; some entries with a clear call stand among them for comparison. Calls come from the whole dose curve; as a rule, active = well fitted inhibition curve with a large enough effect; inconclusive = small, poorly fitted or top-dose-only effect, or another doubt; inactive = no such curve, though single readings can be large or run the other way. Where the call is inconclusive, the potency comes from a doubtful curve fit.

What follows are compounds tested against DNA polymerase beta (Homo sapiens) (UniProt P06746) (assay: qHTS Assay for Inhibitors of DNA Polymerase Beta). Conditions: Pol beta primer extension/strand displacement, fluorescence kinetic; activity change, negative = inhibition: at 114 µM (top of the series).
Procedure, shortened: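 Reaction started by 50 nM substrate onto compound-treated Pol beta (10 nM, 15 min preincubation, room temperature); plates read at 0 min and 10 min. Normalized concentration-effect data fitted by four-parameter Hill equation.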
% is set by controls: 0 for no effect and ±100 for the full control effect; potency is the fitted concentration of half-maximal effect.

Row | Structure (SMILES) | Potency | activity change, negative = inhibition
1 | Cc1cc(N(CCO)Cc2ccccc2)n2nc(-c3ccc(C(C)(C)C)cc3)nc2n1 | inconclusive: 89.1 µM [inhibitor, single point] | 
2 | COc1ccc(-c2cnc(C)o2)cc1S(=O)(=O)Nc1ccc(F)cc1F | inconclusive: 31.6 µM [inhibitor, partial curve] | 
3 | Cn1c(=O)c2cc(C(=O)NC3CCCCCC3)sc2c2ccccc21 | active: 8.91 µM | 
4 | CCOC(=O)c1ncn2c1C(=O)OC2(C)C |  | inactive: 15.4%
5 | Cc1ccc(CN2CC(C(=O)Nc3cc(S(C)(=O)=O)ccc3Cl)CC2=O)cc1 (stereo unspecified) | active: 14.1 µM | 
6 | O=C(COC(=O)CNC(=O)c1sc2ccccc2c1Cl)Nc1c(Cl)cc(Cl)cc1Cl | inconclusive: 3.16 µM [inhibitor, single point] | 
7 | C=CCOC(=O)C1CC=CCC1C(=O)Oc1ccc(F)cc1F (stereo unspecified) | inconclusive: 3.55 µM [inhibitor, single point] | 
8 | COC(=O)c1sc(-c2ccc(C(C)(C)C)cc2)cc1NC(=O)c1ccccc1C(=O)O |  | inconclusive: -61% [inhibitor]
9 | O=C1NN(c2ccccc2)C(=O)/C1=C\c1ccc2c(c1)OCO2 |  | inactive: 3.69%
10 | Cc1ccc(NC(=O)CN2C(=O)COc3ccc(S(=O)(=O)NC4CCCC4)cc32)c(Cl)c1 |  | inactive: 7.76%
11 | O=S(=O)(Nc1cccc(-c2cn3ccsc3n2)c1)c1ccc(F)cc1 | inconclusive: 89.1 µM [inhibitor, single point] | 
12 | Cc1ccc(NC(=S)Nc2ccc3cn[nH]c3c2)c(C)c1 | inconclusive: 5.01 µM [inhibitor, full curve, poor fit] | 
13 | O=C(N/N=C/c1ccc(OC(=O)c2cccc(F)c2)cc1)c1cccnc1 | inconclusive: 12.6 µM [inhibitor, full curve, poor fit] | 
14 | Cc1ccccc1C(=O)NCCc1sc(-c2ccc(Cl)cc2)nc1C |  | inactive: -3.2%
15 | CCOC(=O)Nc1cccc(Cl)c1C |  | inactive: 15.1%
16 | COc1ccc(N(Cc2cccs2)C(=O)Nc2cccc(Cl)c2)cc1 | inconclusive: 89.1 µM [inhibitor, single point] | 
17 | CC(=O)c1cccc(NC(=O)CCc2nnc3ccc(NCc4ccco4)nn23)c1 |  | inconclusive: -105% [inhibitor]
18 | Cc1c(C(=O)OCC(=O)NCC2CCCO2)cccc1[N+](=O)[O-] (stereo unspecified) |  | inactive: 7.18%
19 | O=C(COC(=O)/C=C/c1ccc(F)cc1)Nc1ccc(Cl)cn1 |  | inactive: 2.86%
20 | Cc1ccc(S(=O)(=O)/N=C2\C=C(Nc3cccc(C(=O)O)c3)C(=O)c3ccccc32)cc1 | inconclusive: 100 µM [inhibitor, single point] | 
21 | COCc1nnc(N)s1 | inconclusive: 89.1 µM [inhibitor, single point] | 
22 | COc1ccccc1C(=O)Nc1nc(-c2ccc3c(c2)OCCO3)cs1 | inconclusive: 39.8 µM [inhibitor, single point] | 
23 | O=C(COC(=O)CNC(=O)c1ccccc1)Nc1ccc(S(=O)(=O)N2CCOCC2)cc1 | inconclusive: 3.55 µM [inhibitor, full curve] | 
24 | COc1cc(/C=C2\SC(N)=NC2=O)cc(Br)c1O | inconclusive: 56.2 µM [inhibitor, partial curve] | 

Ordered by SMILES length (low to high): 3 of the compounds above.
Row | Structure (SMILES) | Potency | activity change, negative = inhibition
5 | Cc1ccc(CN2CC(C(=O)Nc3cc(S(C)(=O)=O)ccc3Cl)CC2=O)cc1 (stereo unspecified) | active: 14.1 µM | 
8 | COC(=O)c1sc(-c2ccc(C(C)(C)C)cc2)cc1NC(=O)c1ccccc1C(=O)O |  | inconclusive: -61% [inhibitor]
20 | Cc1ccc(S(=O)(=O)/N=C2\C=C(Nc3cccc(C(=O)O)c3)C(=O)c3ccccc32)cc1 | inconclusive: 100 µM [inhibitor, single point] | 

Following part

Row | Structure (SMILES) | Potency | activity change, negative = inhibition
25 | COC(=O)c1cc(OC)c(OC)cc1NC(=O)c1ccc(OC)cc1 | inconclusive: 39.8 µM [inhibitor, full curve] | 
26 | CCc1ccc2oc(C(=O)NCc3ccccc3)cc(=O)c2c1 | inconclusive: 25.1 µM [inhibitor, full curve, poor fit] | 
27 | Cc1ccc(N2CC(C(=O)NCc3ccco3)CC2=O)cc1Cl (stereo unspecified) |  | inconclusive: -43% [inhibitor]
28 | Cn1cc(-c2cc3n(n2)CCC(=O)N3CCCC(=O)NCc2ccccc2Cl)c2ccccc21 |  | inactive: 0.956%
29 | Cc1ccc(OCCOCCn2c(-c3ccc(Cl)cc3)nc3ccccc3c2=O)cc1 |  | inactive: 16.8%
30 | COc1ccc(-c2nc3cccc(C)n3c2NCc2ccco2)cc1OC | inconclusive: 10 µM [inhibitor, partial curve] | 
31 | Cc1ccc(-n2ncc(C(=O)NCCCN3CCc4ccccc4C3)c2C2CCN(C(=O)OC(C)(C)C)CC2)c(C)c1 |  | inactive: -2.49%
32 | Cc1ccc(/C=C2/SC(=O)NC2=S)o1 | active: 20 µM | 
33 | CCCCOc1ccc(C2C(=O)N(C3CCCCC3)CC(=O)N2CCCC)cc1 (stereo unspecified) |  | inactive: 86.7%
34 | COc1ccc2nc(NC(=O)CN3CCN(C)CC3)sc2c1 | inconclusive: 100 µM [inhibitor, single point] | 
35 | CC/C(=N/Nc1cccc(C)c1)c1cnnc(SC)n1 | inconclusive: 25.1 µM [inhibitor, full curve] | 
36 | O=c1cc(CSc2ccc(Cl)cc2)[nH]c2[nH]n(-c3ccccc3)c(=O)c12 | active: 39.8 µM | 
37 | COc1ccc2c(c1)CCc1c(C(=O)Nc3ccc(C#N)cc3)noc1-2 | inconclusive: 89.1 µM [inhibitor, single point] | 
38 | CCc1ccc2nc(Nc3nc(COC)cc(=O)[nH]3)nc(C)c2c1 | inconclusive: 89.1 µM [inhibitor, single point] | 
39 | O=C(CNCc1cccs1)Nc1cc(S(=O)(=O)N2CCCC2)ccc1Cl |  | inconclusive: -160% [inhibitor]
40 | NS(=O)(=O)c1cccc(NC(=O)CSc2ncnc3ccccc23)c1 |  | inactive: 0.601%
41 | CCOc1ccc(C(=O)c2cn(CC(=O)Nc3ccc(F)c(F)c3)c3cc4c(cc3c2=O)OCCO4)cc1 |  | inactive: 3.93%
42 | CCOc1ccccc1C(=O)Nc1ccc2nc3c(c(Nc4ccc(OC)c(OC)c4)c2c1)CCCC3 |  | inactive: 6.08%
43 | Cc1ncc(CO)c2c1Oc1nc(-c3ccc(F)cc3)nc(SCc3ccc(F)cc3Cl)c1C2 | active: 50.1 µM | 
44 | COc1ccccc1NC(=S)N(Cc1ccccc1)Cc1ccccn1 | inconclusive: 3.55 µM [inhibitor, single point] | 
45 | Cc1ccc(Cc2cnc(N)s2)o1 | inconclusive: 28.2 µM [inhibitor, full curve, poor fit] | 
46 | CCC(NC(=O)c1ccccc1NC(=O)c1ccccc1)C(=O)NNC(=O)CSc1nc2ccccc2o1 (stereo unspecified) | inconclusive: 3.16 µM [inhibitor, full curve] | 
47 | COc1ccc(-c2noc(-c3nnn(-c4ccc(C(C)C)cc4)c3C)n2)cc1OC | inconclusive: 3.98 µM [inhibitor, partial curve, poor fit] | 
48 | N#CC1=C(c2ccc(-c3ccccc3)cc2)COC1=O | inconclusive: 39.8 µM [inhibitor, partial curve, poor fit] | 

Row | Structure (SMILES) | Potency | activity change, negative = inhibition
49 | CCN(c1cccc(C)c1)S(=O)(=O)c1c(C)[nH]c(=O)[nH]c1=O | inconclusive: 39.8 µM [inhibitor, single point] | 
50 | COc1ccccc1C(=O)Nc1onc2c1CCCC2 |  | inactive: -0.191%
51 | Cc1ccc(-c2nnc3ccc(SC(C)C(=O)O)nn23)cc1 (stereo unspecified) | inconclusive: 39.8 µM [inhibitor, partial curve] | 
52 | COc1ccc(C(CC(=O)N2CCCC2)c2c(OC)cc(OC)c3c(-c4ccccc4)cc(=O)oc23)cc1 (stereo unspecified) | active: 35.5 µM | 
54 | CCc1ccccc1NC(=O)COc1ccc2oc(-c3ccc(OC)cc3)cc(=O)c2c1 | inconclusive: 31.6 µM [inhibitor, single point] | 
55 | Cc1ccc(NC(=O)CCC(=O)OCC(=O)c2ccc(-c3ccccc3)cc2)cc1 | inconclusive: 15.8 µM [inhibitor, single point] | 
56 | N#CC1=C(N)Oc2c(sc3ccccc23)C1c1ccco1 (stereo unspecified) | inconclusive: 11.2 µM [inhibitor, partial curve] | 
57 | CCOc1ccccc1C1C(C(=O)Nc2ccccc2)=C(C)Nc2c(C(=O)Nc3ccc(F)cc3)cnn21 (stereo unspecified) |  | inactive: -11.6%
58 | Cc1ccc(NC(=O)Cn2cc(C(=O)c3ccco3)c3ccccc32)cc1 | active: 11.2 µM | 
59 | COc1cc(C2C(C#N)=C(N)Oc3cc(C)oc(=O)c32)cc2c1OCO2 (stereo unspecified) | inconclusive: 12.6 µM [inhibitor, partial curve] | 
60 | Cc1ccc(S(=O)(=O)NCC(Nc2cccc(Cl)c2)c2ccccc2)cc1 (stereo unspecified) |  | inactive: -13.4%
61 | CCCCSCCCNC(=O)c1c[nH]c2ccc(S(=O)(=O)Nc3cccc(OC)c3)cc2c1=O | inconclusive: 79.4 µM [inhibitor, partial curve] | 
62 | Cc1ccc(S(=O)(=O)NCC(c2ccc(N(C)C)cc2)N2CCc3ccccc32)cc1 (stereo unspecified) |  | inactive: -23.6%
63 | Cc1ccccc1CSCC(=O)NC(=O)NCc1ccco1 | active: 11.2 µM | 
64 | O=C1/C(=C/c2ccco2)SC(=S)N1CCC(=O)N1CCCCC1CCO (stereo unspecified) | inconclusive: 0.891 µM [inhibitor, single point] | 
65 | CCC(C)NC(=O)Cn1c(=O)n(-c2ccc(C)c(C)c2)c(=O)c2c(C)c(C(=O)N(CC)CC)sc21 (stereo unspecified) |  | inactive: 47.4%
66 | O=C(N/N=C/c1cccnc1)c1cc(Br)ccc1O |  | inactive: 1.89%
67 | Cc1ccccc1N(CC(=O)NCCSCc1ccco1)S(C)(=O)=O | inconclusive: 89.1 µM [inhibitor, single point] | 
68 | CC1(C)CC(=O)C(C(c2ccco2)C2C(=O)CC(C)(C)CC2=O)C(=O)C1 | inconclusive: 14.1 µM [inhibitor, full curve, poor fit] | 
69 | Cc1cc(C)cc(NC(=S)NCCSc2ccc(Cl)cc2)c1 |  | inactive: 11.6%
70 | COc1ccc(C(=O)N2CCOC2CNC(=O)C(=O)NCc2ccccc2Cl)cc1 (stereo unspecified) |  | inactive: 0.663%
71 | COc1ccc(C2=NN(C(=O)CCCC(=O)O)C(c3cn(-c4ccccc4)nc3-c3ccccc3)C2)cc1 (stereo unspecified) |  | inconclusive: -93.9% [inhibitor]
